# PubChem BioAssay AID2685 (National Center for Advancing Translational Sciences (NCATS), 2010)
# This is one part of the list. The main result of the screen is listed elsewhere. These columns were measured beside it and carry no call. Most of these compounds were active or inconclusive in the main read-out, so they are no random draw. The note in brackets gives the kind of curve behind each potency; many fits are weak.
# Assay: qHTS Assay for Lipid Storage Modulators in Drosophila S3 Cells;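 as to cell number change: cells counted by Cell Tracker Red CMTPX staining in the red channel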
# Details: BODIPY lipid droplet fluorescence, 18-24 h; for cell number change: measured here: cell count max response, cells fed with added oleic acid
# How it was run: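 Drosophila S3 cells loaded with oleic acid (400 uM, as added) and compounds at several concentrations; lipid droplets imaged by 488-nm laser-scanning cytometry, 500–530 nm intensity and object ratio to cell channel. Percent activity normalized to 20 uM Triacsin C.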
# [1] = measured here: cell number channel AC50, cells fed with added oleic acid
# [2] = measured here: lipid fluorescence (Fed channel) AC50, cells fed with added oleic acid
Compound,cell number change [%],AC50 [1],AC50 [2]
COc1cc(OC)c(-c2c3cc(O)c(=O)cc-3oc3cc(O)c(O)cc23)cc1OC,-98.9,"5.17 µM [falling, full curve]","3.26 µM [falling, full curve]"
C/C(N)=C(/C#N)C(=O)COC(=O)c1ccc(O)cc1,15.7,–,–
CCCN1C(=O)/C(=C/C=C2\N(CC)c3ccccc3C2(C)C)SC1=S,-67.3,"1.3 µM [falling, full curve]","1.3 µM [falling, full curve]"
CN(C)CCCOc1cccc(Cl)c1,-15.6,–,"0.13 µM [falling, full curve, poor fit]"
O=C(CSc1nnnn1C1CCCC1)Nc1cccc(NC(=O)c2ccco2)c1,30.9,"1.46 µM [rising, partial curve, poor fit]",–
COc1ccc(O)c(-c2cc(-c3cccc(Br)c3)n[nH]2)c1,-30,"29.1 µM [falling, single point]","29.1 µM [falling, single point]"
CCOc1ccc(N(CC(=O)NC2CCCCC2)C(=O)Cn2nnc(-c3ccc(C)o3)n2)cc1,17.3,–,–
CC(C)CN(C(=O)COC(=O)c1cnccn1)c1c(N)n(Cc2ccccc2)c(=O)[nH]c1=O,-29,"0.82 µM [falling, full curve, poor fit]",–
Cc1c(OC(C)C(=O)NC2CC(C)(C)NC(C)(C)C2)ccc2c3c(c(=O)oc12)CCC3 (configuration not stated),22,–,"6.51 µM [rising, single point]"
Cn1c2cc(B(O)O)sc2c2cnn(Cc3ccc(F)cc3F)c(=O)c21,44.3,"2.91 µM [rising, single point]","18.4 µM [rising, partial curve]"
CCOc1ccccc1C(=O)N[C@H](C(=O)Nc1ccc(OC)c(S(=O)(=O)N2CCOCC2)c1)C(C)C,42.4,"18.4 µM [rising, partial curve, poor fit]",–
COc1ccc(-n2nnnc2CNC(=O)c2ccc3ccccc3c2)cc1,71.7,"14.6 µM [rising, partial curve]",–
CCOC(=O)NC1(C(F)(F)F)NC(=O)N(Cc2ccco2)C1=O (configuration not stated),-15.4,–,–
COc1cc(OC)cc(C(=O)n2cnnc2N)c1,-68.8,"29.1 µM [falling, single point]",–
COc1ccccc1CN(Cc1nc2ccccc2c(=O)[nH]1)C(=O)Nc1ccccc1C,22.5,–,"0.00461 µM [rising, full curve, poor fit]"
COc1cccc(N/C=C(\C#N)c2ccc(OCCCF)cc2)c1,-3.1,–,–

# Single records, as listed above. Values in the order: cell number change [%]	AC50 [1]	AC50 [2]
# `CN(C)CCCOc1cccc(Cl)c1` in the list: -15.6	–	0.13 µM [falling, full curve, poor fit]
# `C/C(N)=C(/C#N)C(=O)COC(=O)c1ccc(O)cc1` in the list: 15.7	–	–
